Data reported in patent US20220273637A1, “NOVEL PFAR-INHIBITING COMPOUNDS” (UNIVERSITE DE BRETAGNE OCCIDENTALE (UBO), priority 2019, published 2022).

Columns and labels:
[1] = tested on: PFAR (protein folding activity of ribosome); assay: Inhibition of PFAR in yeast cells (LuxAB luciferase refolding after heat shock); format: cell-based; details: luciferase activity at 0, 90 and 150 minutes after heat shock, FIG. 2
[2] = tested on: PABPN1 aggregates; format: cell-based, murine

SMILES: CC(C)(C)c1ccc(C(=O)CCCN2CCC(OC(c3ccccc3)c3ccccc3)CC2)cc1 [ebastine]
- concentration from which PFAR is inhibited [1]: ≥ 25 µM
- activity compared with guanabenz (positive control) [2]: more active than guanabenz
